Laboratory results taken from US20190280220A1, “METAL COMPLEXES” (Merck Patent GmbH, priority 2016, published 2019).

Test: Solution-processed OLED device, type 1 (emission layer M1:M2:IrL 40%:35%:25%)
Settings: type 1 device, single emitter

c1ccc(-c2c(-c3ccccc3)c(-c3ccccc3)c(-c3cc[c]([Ir]([c]4ccc(-c5c(-c6ccccc6)c(-c6ccccc6)c(-c6ccccc6)c(-c6ccccc6)c5-c5ccccc5)cc4-c4ccccn4)[c]4ccc(-c5c(-c6ccccc6)c(-c6ccccc6)c(-c6ccccc6)c(-c6ccccc6)c5-c5ccccc5)cc4-c4ccccn4)c(-c4ccccn4)c3)c(-c3ccccc3)c2-c2ccccc2)cc1 [Ir(500)]
CIE x: 0.32 | CIE y: 0.62 | EQE (%) 1000 cd/m^2: 19.6% | LT50 (h) 1000 cd/m^2: 290000 h | Voltage (V) 1000 cd/m^2: 5.0 V

c1ccc(-c2c(-c3ccccc3)c(-c3ccccc3)c(-c3ccc(-c4cc(-c5ccccn5)[c]5cc4-c4ccccc4-c4cc6cc(c4)-c4ccccc4-c4ccc(-c7ccccn7)[c](c4)[Ir]5[c]4cc(ccc4-c4ccccn4)-c4ccccc4-6)cc3)c(-c3ccc(-c4cc(-c5ccccn5)[c]5cc4-c4ccccc4-c4cc6cc(c4)-c4ccccc4-c4ccc(-c7ccccn7)[c](c4)[Ir]5[c]4cc(ccc4-c4ccccn4)-c4ccccc4-6)cc3)c2-c2ccccc2)cc1 [Ir(534)]
CIE x: 0.31 and 0.32 | CIE y: 0.66 and 0.63 | EQE (%) 1000 cd/m^2: 22.0% and 22.7% | LT50 (h) 1000 cd/m^2: 340000 h | Voltage (V) 1000 cd/m^2: 5.1 V and 4.9 V

c1ccc(-c2c(-c3ccccc3)c(-c3ccccc3)c(-c3cc[c]4c(c3)-c3ccc(cn3)-c3ccccc3-c3cc5cc(c3)-c3ccccc3-c3ccc(nc3)-c3cc(-c6c(-c7ccccc7)c(-c7ccccc7)c(-c7ccccc7)c(-c7ccccc7)c6-c6ccccc6)cc[c]3[Ir]4[c]3ccc(-c4c(-c6ccccc6)c(-c6ccccc6)c(-c6ccccc6)c(-c6ccccc6)c4-c4ccccc4)cc3-c3ccc(cn3)-c3ccccc3-5)c(-c3ccccc3)c2-c2ccccc2)cc1 [Ir(515)]
CIE x: 0.34 | CIE y: 0.61 | EQE (%) 1000 cd/m^2: 21.9% | LT50 (h) 1000 cd/m^2: 290000 h | Voltage (V) 1000 cd/m^2: 4.9 V

c1ccc(-c2c(-c3ccccc3)c(-c3ccccc3)c(-c3ccc(-c4cc(-c5ccccn5)[c]5cc4-c4ccccc4-c4cc6cc(c4)-c4ccccc4-c4c[c](c(-c7ccccn7)cc4-c4ccc(-c7c(-c8ccccc8)c(-c8ccccc8)c(-c8ccccc8)c(-c8ccccc8)c7-c7ccccc7)cc4)[Ir]5[c]4cc(c(-c5ccc(-c7c(-c8ccccc8)c(-c8ccccc8)c(-c8ccccc8)c(-c8ccccc8)c7-c7ccccc7)cc5)cc4-c4ccccn4)-c4ccccc4-6)cc3)c(-c3ccccc3)c2-c2ccccc2)cc1 [Ir(530)]
CIE x: 0.30 | CIE y: 0.65 | EQE (%) 1000 cd/m^2: 22.3% | LT50 (h) 1000 cd/m^2: 360000 h | Voltage (V) 1000 cd/m^2: 5.2 V

CC(C)(C)c1ccc(-c2c(-c3ccc(-c4cc[c]5c(c4)-c4ccc(cn4)-c4ccccc4-c4cc6cc(c4)-c4ccccc4-c4ccc(nc4)-c4cc(-c7ccc(-c8c(-c9ccc(C(C)(C)C)cc9)c(-c9ccccc9)c9c%10ccccc%10c%10ccccc%10c9c8-c8ccccc8)cc7)cc[c]4[Ir]5[c]4ccccc4-c4ccc(cn4)-c4ccccc4-6)cc3)c(-c3ccccc3)c3c4ccccc4c4ccccc4c3c2-c2ccccc2)cc1 [Ir(531)]
CIE x: 0.33 | CIE y: 0.62 | EQE (%) 1000 cd/m^2: 20.7% | LT50 (h) 1000 cd/m^2: 270000 h | Voltage (V) 1000 cd/m^2: 5.1 V

c1ccc(-c2c(-c3ccccc3)c(-c3ccccc3)c(-c3ccc4c5ccccc5c5ccccc5c4c3)c(-c3cc[c]4c(c3)-c3ccc(cn3)-c3ccccc3-c3cc5cc(c3)-c3ccccc3-c3ccc(nc3)-c3cc(-c6c(-c7ccccc7)c(-c7ccccc7)c(-c7ccccc7)c(-c7ccccc7)c6-c6ccc7c8ccccc8c8ccccc8c7c6)cc[c]3[Ir]4[c]3ccccc3-c3ccc(cn3)-c3ccccc3-5)c2-c2ccccc2)cc1 [Ir(516)]
CIE x: 0.34 | CIE y: 0.61 | EQE (%) 1000 cd/m^2: 22.3% | LT50 (h) 1000 cd/m^2: 310000 h | Voltage (V) 1000 cd/m^2: 5.0 V

c1ccc(-c2cc(-c3ccccc3)cc(-c3c(-c4ccccc4)c(-c4ccccc4)c(-c4cc(-c5ccccc5)cc(-c5ccccc5)c4)c(-c4ccc(-c5cc(-c6ccccn6)[c]6cc5-c5ccccc5-c5cc7cc(c5)-c5ccccc5-c5c[c](c(-c8ccccn8)cc5-c5ccc(-c8c(-c9ccccc9)c(-c9cc(-c%10ccccc%10)cc(-c%10ccccc%10)c9)c(-c9ccccc9)c(-c9ccccc9)c8-c8cc(-c9ccccc9)cc(-c9ccccc9)c8)cc5)[Ir]6[c]5cc(ccc5-c5ccccn5)-c5ccccc5-7)cc4)c3-c3ccccc3)c2)cc1 [Ir(532)]
CIE x: 0.33 | CIE y: 0.62 | EQE (%) 1000 cd/m^2: 22.1% | LT50 (h) 1000 cd/m^2: 290000 h | Voltage (V) 1000 cd/m^2: 5.0 V

c1ccc(-c2ccc(N(c3ccc(-c4ccccc4)cc3)c3ccc(-c4c(-c5ccccc5)c(-c5ccccc5)c(-c5ccccc5)c(-c5ccccc5)c4-c4cc[c]5c(c4)-c4ccc(cn4)-c4ccccc4-c4cc6cc(c4)-c4ccccc4-c4ccc(nc4)-c4cccc[c]4[Ir]5[c]4ccccc4-c4ccc(cn4)-c4ccccc4-6)cc3)cc2)cc1 [Ir(517)]
CIE x: 0.35 | CIE y: 0.62 | EQE (%) 1000 cd/m^2: 21.7% | LT50 (h) 1000 cd/m^2: 330000 h | Voltage (V) 1000 cd/m^2: 4.7 V

c1ccc(-c2ccccc2-c2cc(-c3ccccn3)[c]3cc2-c2ccccc2-c2cc4cc(c2)-c2ccccc2-c2c[c](c(-c5ccccn5)cc2-c2ccccc2-c2ccccc2)[Ir]3[c]2cc(c(-c3ccccc3-c3ccccc3)cc2-c2ccccn2)-c2ccccc2-4)cc1 [IrRef2, reference compound]
CIE x: 0.33 | CIE y: 0.62 | EQE (%) 1000 cd/m^2: 20.6% | LT50 (h) 1000 cd/m^2: 250000 h | Voltage (V) 1000 cd/m^2: 5.2 V

Cc1ccc(-c2cc(-c3ccc(-c4c(-c5ccc(-c6cc(-c7ccc(C)cc7)c(-c7ccc(C)cc7)c(-c7ccc(C)cc7)c6-c6ccc(C)cc6)cc5)c(-c5ccc(C)cc5)c(-c5cc(-c6cc(-c7ccccn7)[c]7cc6-c6ccccc6-c6cc8cc(c6)-c6ccccc6-c6ccc(-c9ccccn9)[c](c6)[Ir]7[c]6cc(ccc6-c6ccccn6)-c6ccccc6-8)cc(-c6c(-c7ccc(C)cc7)c(-c7ccc(-c8cc(-c9ccc(C)cc9)c(-c9ccc(C)cc9)c(-c9ccc(C)cc9)c8-c8ccc(C)cc8)cc7)c(-c7ccc(-c8cc(-c9ccc(C)cc9)c(-c9ccc(C)cc9)c(-c9ccc(C)cc9)c8-c8ccc(C)cc8)cc7)c(-c7ccc(C)cc7)c6-c6ccc(C(C)(C)C)cc6)c5)c(-c5ccc(C(C)(C)C)cc5)c4-c4ccc(C)cc4)cc3)c(-c3ccc(C)cc3)c(-c3ccc(C)cc3)c2-c2ccc(C)cc2)cc1 [Ir(533)]
CIE x: 0.32 | CIE y: 0.63 | EQE (%) 1000 cd/m^2: 21.9% | LT50 (h) 1000 cd/m^2: 320000 h | Voltage (V) 1000 cd/m^2: 4.8 V

Values joined by “and” are separate entries in the source; they are usually repeats but may differ in a detail not shown here. Identical values can stand only once.
